Source: the supplement of paper PMC10849652
Some of the results follow.

The chains behind the UniProt entries cited, without tags or fusion partners. Where a name states a change or a piece, a line headed by the entry shows the natural chain unless it says otherwise.
UniProt O60264, whole entry, looked up: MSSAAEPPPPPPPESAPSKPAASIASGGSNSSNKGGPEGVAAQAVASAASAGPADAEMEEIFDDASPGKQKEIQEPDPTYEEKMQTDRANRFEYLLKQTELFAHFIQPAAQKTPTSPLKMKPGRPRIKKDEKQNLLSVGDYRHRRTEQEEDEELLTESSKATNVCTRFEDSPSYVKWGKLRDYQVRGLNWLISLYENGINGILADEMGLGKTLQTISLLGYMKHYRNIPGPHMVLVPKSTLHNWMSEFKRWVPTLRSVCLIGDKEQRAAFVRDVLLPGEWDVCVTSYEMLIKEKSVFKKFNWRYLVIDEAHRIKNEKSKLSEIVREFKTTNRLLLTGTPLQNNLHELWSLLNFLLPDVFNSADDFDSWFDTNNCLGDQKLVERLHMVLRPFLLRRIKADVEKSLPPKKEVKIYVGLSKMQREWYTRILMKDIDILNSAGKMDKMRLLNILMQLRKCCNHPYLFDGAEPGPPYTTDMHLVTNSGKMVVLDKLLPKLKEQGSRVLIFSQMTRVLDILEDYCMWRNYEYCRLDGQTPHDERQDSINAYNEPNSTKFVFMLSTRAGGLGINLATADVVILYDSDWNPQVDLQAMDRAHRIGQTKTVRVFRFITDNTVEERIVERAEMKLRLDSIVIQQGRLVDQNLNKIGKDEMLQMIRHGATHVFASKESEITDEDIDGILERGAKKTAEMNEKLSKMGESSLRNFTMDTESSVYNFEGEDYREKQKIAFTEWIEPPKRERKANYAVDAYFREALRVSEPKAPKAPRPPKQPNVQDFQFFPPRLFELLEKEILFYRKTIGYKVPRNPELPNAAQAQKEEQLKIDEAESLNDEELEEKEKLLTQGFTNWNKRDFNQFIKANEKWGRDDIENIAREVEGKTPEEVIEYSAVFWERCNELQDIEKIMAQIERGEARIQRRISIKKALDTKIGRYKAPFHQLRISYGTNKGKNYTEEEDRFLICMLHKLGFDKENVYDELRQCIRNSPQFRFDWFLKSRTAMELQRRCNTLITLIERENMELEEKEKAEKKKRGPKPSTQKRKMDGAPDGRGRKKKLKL
UniProt Q8ND04: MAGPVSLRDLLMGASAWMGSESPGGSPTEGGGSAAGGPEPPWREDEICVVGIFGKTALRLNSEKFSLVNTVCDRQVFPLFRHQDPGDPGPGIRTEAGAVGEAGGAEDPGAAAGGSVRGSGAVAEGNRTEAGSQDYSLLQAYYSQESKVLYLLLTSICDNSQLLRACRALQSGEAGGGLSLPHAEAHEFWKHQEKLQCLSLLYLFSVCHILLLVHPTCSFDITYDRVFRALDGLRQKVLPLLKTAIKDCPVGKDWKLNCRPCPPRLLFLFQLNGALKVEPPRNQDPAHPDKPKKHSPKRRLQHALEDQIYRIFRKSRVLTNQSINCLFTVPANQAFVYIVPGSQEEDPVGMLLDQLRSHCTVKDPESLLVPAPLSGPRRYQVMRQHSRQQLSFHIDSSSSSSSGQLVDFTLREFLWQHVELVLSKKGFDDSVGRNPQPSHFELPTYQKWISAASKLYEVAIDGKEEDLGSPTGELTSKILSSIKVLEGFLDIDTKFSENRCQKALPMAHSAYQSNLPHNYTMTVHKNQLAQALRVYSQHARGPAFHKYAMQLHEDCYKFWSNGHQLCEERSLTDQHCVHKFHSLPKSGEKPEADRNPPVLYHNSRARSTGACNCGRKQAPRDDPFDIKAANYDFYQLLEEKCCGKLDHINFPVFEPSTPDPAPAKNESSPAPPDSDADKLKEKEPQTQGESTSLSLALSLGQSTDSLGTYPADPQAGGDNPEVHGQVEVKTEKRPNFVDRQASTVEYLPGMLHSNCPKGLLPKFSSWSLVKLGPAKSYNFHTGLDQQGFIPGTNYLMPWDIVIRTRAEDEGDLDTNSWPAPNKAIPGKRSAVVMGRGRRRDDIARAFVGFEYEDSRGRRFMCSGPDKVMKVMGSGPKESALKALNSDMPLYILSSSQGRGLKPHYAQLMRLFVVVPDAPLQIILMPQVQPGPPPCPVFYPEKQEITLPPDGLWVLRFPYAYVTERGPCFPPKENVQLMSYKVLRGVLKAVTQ
UniProt Q9BX66: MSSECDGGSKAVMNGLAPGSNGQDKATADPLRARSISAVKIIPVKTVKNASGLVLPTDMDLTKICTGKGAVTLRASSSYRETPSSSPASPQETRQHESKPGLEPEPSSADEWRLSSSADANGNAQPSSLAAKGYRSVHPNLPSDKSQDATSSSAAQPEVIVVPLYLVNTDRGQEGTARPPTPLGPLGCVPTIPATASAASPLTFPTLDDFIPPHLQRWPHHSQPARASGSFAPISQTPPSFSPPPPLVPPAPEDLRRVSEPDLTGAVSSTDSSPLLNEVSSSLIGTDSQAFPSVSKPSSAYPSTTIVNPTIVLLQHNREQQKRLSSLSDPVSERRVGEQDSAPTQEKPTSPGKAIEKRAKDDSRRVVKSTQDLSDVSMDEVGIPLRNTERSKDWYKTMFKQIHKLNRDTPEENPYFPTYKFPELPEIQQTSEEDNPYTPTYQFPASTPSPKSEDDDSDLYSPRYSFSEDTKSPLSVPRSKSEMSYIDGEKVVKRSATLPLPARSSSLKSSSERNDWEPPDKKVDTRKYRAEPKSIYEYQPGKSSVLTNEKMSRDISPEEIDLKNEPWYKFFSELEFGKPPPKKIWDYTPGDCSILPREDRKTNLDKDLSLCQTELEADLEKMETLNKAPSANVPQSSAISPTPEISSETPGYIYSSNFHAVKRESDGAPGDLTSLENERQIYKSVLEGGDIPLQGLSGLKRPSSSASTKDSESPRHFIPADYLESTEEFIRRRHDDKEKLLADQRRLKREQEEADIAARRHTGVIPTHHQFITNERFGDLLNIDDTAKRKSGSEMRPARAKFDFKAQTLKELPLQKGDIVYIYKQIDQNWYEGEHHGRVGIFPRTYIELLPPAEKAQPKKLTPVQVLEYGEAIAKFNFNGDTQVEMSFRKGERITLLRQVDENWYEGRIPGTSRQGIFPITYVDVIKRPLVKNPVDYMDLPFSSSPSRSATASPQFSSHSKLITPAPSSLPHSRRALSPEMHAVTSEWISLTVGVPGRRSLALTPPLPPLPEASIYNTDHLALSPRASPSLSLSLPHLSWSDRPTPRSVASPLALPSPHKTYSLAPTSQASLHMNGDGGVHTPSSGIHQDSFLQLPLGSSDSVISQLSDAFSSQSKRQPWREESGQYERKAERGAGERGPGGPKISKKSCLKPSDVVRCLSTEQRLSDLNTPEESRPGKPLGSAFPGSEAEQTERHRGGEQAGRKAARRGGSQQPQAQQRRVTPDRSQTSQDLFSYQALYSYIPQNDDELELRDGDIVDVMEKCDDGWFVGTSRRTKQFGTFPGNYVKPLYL
UniProt Q15036: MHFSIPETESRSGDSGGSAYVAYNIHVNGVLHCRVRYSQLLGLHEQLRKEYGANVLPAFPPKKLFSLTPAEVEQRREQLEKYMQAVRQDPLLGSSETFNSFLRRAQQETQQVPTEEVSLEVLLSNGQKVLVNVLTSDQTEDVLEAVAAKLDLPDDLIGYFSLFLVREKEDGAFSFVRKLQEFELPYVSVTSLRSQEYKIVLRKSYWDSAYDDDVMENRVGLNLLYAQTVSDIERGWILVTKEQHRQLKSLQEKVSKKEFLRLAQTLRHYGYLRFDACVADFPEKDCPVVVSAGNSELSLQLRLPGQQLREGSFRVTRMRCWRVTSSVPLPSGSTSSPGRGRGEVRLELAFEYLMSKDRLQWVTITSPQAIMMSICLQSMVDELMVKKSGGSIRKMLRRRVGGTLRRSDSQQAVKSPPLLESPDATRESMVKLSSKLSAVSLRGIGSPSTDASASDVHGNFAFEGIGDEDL
UniProt Q96EX1: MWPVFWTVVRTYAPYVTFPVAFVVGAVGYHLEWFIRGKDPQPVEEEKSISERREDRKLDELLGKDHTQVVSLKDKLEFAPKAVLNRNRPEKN
UniProt P18583: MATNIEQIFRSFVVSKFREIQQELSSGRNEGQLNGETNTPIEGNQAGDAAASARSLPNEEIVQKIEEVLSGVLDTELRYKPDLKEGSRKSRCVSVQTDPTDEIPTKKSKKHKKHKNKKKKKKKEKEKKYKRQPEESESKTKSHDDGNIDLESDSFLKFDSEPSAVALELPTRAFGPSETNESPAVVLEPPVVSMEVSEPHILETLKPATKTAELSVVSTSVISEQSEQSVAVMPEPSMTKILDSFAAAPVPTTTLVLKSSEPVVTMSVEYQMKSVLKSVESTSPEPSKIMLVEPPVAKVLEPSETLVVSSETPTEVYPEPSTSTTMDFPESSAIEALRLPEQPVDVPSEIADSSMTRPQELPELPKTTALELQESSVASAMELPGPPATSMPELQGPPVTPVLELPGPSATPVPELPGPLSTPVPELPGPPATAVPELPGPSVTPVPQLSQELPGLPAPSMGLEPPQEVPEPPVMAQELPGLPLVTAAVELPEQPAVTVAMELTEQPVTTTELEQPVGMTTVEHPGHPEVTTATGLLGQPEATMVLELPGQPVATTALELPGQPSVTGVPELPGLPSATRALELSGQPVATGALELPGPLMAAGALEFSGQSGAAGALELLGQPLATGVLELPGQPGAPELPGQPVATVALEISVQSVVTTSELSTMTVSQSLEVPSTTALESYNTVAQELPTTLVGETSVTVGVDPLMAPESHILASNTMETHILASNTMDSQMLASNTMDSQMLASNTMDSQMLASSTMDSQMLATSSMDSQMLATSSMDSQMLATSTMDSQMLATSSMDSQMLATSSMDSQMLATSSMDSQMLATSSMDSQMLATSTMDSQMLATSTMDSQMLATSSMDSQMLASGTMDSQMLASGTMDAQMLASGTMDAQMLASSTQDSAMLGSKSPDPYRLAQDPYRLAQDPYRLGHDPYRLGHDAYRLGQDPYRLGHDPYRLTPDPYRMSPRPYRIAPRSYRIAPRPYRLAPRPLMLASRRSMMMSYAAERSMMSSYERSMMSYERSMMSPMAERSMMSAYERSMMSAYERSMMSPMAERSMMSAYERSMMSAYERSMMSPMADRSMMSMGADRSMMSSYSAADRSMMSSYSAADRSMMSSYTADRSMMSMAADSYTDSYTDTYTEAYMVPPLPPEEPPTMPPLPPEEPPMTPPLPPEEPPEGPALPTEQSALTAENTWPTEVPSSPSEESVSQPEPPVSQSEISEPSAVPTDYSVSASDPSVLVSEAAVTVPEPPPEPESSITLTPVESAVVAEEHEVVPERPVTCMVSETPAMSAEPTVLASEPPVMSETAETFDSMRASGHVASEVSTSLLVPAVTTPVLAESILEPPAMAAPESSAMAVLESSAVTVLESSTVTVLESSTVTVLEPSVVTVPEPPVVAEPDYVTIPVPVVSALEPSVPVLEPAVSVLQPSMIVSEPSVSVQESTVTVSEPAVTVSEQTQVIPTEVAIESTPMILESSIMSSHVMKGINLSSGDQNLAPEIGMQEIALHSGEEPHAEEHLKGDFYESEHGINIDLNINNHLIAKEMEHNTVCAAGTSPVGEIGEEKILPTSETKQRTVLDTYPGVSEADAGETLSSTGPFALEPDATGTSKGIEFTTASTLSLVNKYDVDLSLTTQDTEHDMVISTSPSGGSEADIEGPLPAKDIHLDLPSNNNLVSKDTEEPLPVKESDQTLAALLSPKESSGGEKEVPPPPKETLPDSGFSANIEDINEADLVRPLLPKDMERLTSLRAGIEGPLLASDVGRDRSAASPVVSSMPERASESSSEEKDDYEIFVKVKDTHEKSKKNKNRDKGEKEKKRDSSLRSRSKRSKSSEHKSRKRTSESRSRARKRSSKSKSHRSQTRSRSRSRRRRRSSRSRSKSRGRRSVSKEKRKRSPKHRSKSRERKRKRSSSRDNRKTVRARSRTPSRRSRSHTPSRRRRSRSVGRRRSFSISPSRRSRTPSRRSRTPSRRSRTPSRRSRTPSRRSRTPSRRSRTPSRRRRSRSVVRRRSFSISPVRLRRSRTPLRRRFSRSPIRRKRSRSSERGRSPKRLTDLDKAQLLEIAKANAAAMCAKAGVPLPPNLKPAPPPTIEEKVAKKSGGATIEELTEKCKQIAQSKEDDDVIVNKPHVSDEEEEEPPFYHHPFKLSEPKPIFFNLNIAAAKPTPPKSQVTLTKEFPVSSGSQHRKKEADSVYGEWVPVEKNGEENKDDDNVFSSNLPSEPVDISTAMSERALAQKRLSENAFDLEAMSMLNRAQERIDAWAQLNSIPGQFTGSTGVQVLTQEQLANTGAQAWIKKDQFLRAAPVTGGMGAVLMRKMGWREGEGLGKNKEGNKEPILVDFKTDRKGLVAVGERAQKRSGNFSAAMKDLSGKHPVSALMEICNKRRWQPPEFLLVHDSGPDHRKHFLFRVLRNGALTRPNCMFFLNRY
UniProt O75940: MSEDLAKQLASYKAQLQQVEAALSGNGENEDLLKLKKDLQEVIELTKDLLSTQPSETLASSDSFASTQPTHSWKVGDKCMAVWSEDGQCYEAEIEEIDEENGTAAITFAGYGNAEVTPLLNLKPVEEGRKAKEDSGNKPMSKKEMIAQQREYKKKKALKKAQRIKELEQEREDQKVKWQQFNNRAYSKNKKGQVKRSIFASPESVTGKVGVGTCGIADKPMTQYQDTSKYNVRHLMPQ

Assays:
Test in all cases: log2 fold change, soluble protein after heating vs DMSO (PISA); higher = thermal stabilisation; K562 lysate, 10 uM; active = over 0.2 and 3.5 SD of the protein, either way, in both replicates (recomputed)
erlotinib = compound: C#Cc1cccc(Nc2ncnc3cc(OCCOC)c(OCCOC)cc23)c1 [erlotinib]
How it was run: (§1)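 Quantification was by TMTpro 16plex LC-MS/MS with equalised channel sums, applied to the supernatant after 21,000xg for 90 min. Samples were crude K562 extract at 1 mg/mL protein in PBS pH 7.4 with 1 mM MgCl2, treated with 10 μM compound for 30 min, heated for 3 min across 48°C-58°C, pooled and brought to 0.5% NP-40 at 4°C. Values are log-two fold changes in thermal stability relative to solvent controls, from duplicates.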

[1] = compound: C/C(=N\NC(=O)C1=CC(=CC=C1)S(=O)(=O)N2CCOCC2)/C3=C(C=CC(=C3)Cl)O
How it was run: as §1

[2] = compound: C1=CC(=CC=C1C2=NC3=C(N2)C=C(C=C3)C(=O)N)OC4=CC=C(C=C4)Cl
How it was run: as §1

[3] = compound: C1=CC2=C(C=CC(=C2)/C=C\3/C(=O)NC(=NCC4=CC=CS4)S3)N=C1
How it was run: as §1

[4] = compound: C1=CC2=NC=CN=C2C=C1/C=C/3\C(=O)NC(=O)S3
How it was run: as §1

[5] = compound: C1=CC=C(C=C1)C2=NC(=C(N2)C3=CC=NC=C3)C4=CC(=C(C=C4)Cl)O
How it was run: as §1

[6] = compound: C1=CC=C2C(=C1)C3=NNC4=CC=CC(=C43)C2=O
How it was run: as §1

[7] = compound: C1CCN(C1)C(=O)NC2=CC=CC(=C2)NC3=NC=C(C(=N3)NCCC4=CN=CN4)Br
How it was run: as §1

[8] = compound: C1CN(CCC1(CC2=CC=C(C=C2)Cl)N)C3=NC=NC4=C3C=CN4
How it was run: as §1

IRAK-1-4 Inhibitor I = compound: C1COCCN1CCN2C3=CC=CC=C3N=C2NC(=O)C4=CC(=CC=C4)[N+](=O)[O-] [IRAK-1-4 Inhibitor I]
How it was run: as §1

Measured: log2 fold change

SMC6 (UniProt Q96SB8)
inactive: erlotinib 0.02 | [1] 0.038 | [2] -0.03 | [3] -0.002 | [4] -0.009 | [5] 0.019 | [6] -0.055 | [7] -0.031 | [8] 0.03 | IRAK-1-4 Inhibitor I 0.01

SMARCA5 (UniProt O60264)
inactive: erlotinib -0.026 | [1] 0.065 | [2] 0.064 | [3] -0.026 | [4] -0.02 | [5] -0.019 | [6] 0 | [7] -0.014 | [8] 0.012 | IRAK-1-4 Inhibitor I -0.021

SMC5 (UniProt Q8IY18)
inactive: erlotinib 0.032 | [1] 0.031 | [2] 0.056 | [3] 0.009 | [4] -0.018 | [5] 0.013 | [6] -0.04 | [7] -0.031 | [8] -0.016 | IRAK-1-4 Inhibitor I 0.043

SMARCAD1 isoform 2 (UniProt Q9H4L7)
inactive: erlotinib 0 | [1] 0.022 | [2] -0.039 | [3] 0.023 | [4] -0.019 | [5] 0.041 | [6] -0.052 | [7] -0.051 | [8] 0.003 | IRAK-1-4 Inhibitor I -0.006

SMG8 isoform 2 (UniProt Q8ND04)
inactive: erlotinib 0.057 | [1] 0.021 | [2] -0.166 | [3] -0.047 | [4] 0.016 | [5] -0.065 | [6] 0.007 | [7] -0.011 | [8] 0.014 | IRAK-1-4 Inhibitor I -0.115

SP1 (UniProt P08047)
inactive: erlotinib -0.012 | [1] -0.04 | [2] 0.053 | [3] 0.093 | [4] -0.047 | [5] 0.007 | [6] 0.04 | [7] 0.004 | [8] 0.013 | IRAK-1-4 Inhibitor I 0.034

SORBS1 isoform 8 (UniProt Q9BX66)
inactive: erlotinib -0.021 | [1] -0.033 | [2] 0.066 | [3] -0.012 | [4] -0.021 | [5] 0.007 | [6] -0.011 | [7] 0.045 | [8] -0.014 | IRAK-1-4 Inhibitor I 0.003

SNX17 (UniProt Q15036)
inactive: erlotinib -0.011 | [1] 0.006 | [2] 0 | [3] 0.027 | [4] -0.023 | [5] -0.039 | [6] -0.029 | [7] -0.032 | [8] 0.038 | IRAK-1-4 Inhibitor I 0.019

SNAP23 (UniProt O00161)
inactive: erlotinib -0.01 | [1] 0.037 | [2] -0.025 | [3] 0.047 | [4] 0.02 | [5] 0.039 | [6] 0.022 | [7] 0.018 | [8] 0.03 | IRAK-1-4 Inhibitor I 0.038

SMIM12 (UniProt Q96EX1)
inactive: erlotinib 0.048 | [1] -0.105 | [2] -0.024 | [3] -0.042 | [4] -0.026 | [5] 0.024 | [6] -0.009 | [7] 0.075 | [8] 0.008 | IRAK-1-4 Inhibitor I -0.009

Random excerpt: 2 records from the list
SNAP23 (UniProt O00161)
inactive: erlotinib -0.01 | [1] 0.037 | [2] -0.025 | [3] 0.047 | [4] 0.02 | [5] 0.039 | [6] 0.022 | [7] 0.018 | [8] 0.03 | IRAK-1-4 Inhibitor I 0.038

SNX17 (UniProt Q15036)
inactive: erlotinib -0.011 | [1] 0.006 | [2] 0 | [3] 0.027 | [4] -0.023 | [5] -0.039 | [6] -0.029 | [7] -0.032 | [8] 0.038 | IRAK-1-4 Inhibitor I 0.019

The list goes on.

SON isoform 9 (UniProt P18583)
inactive: erlotinib 0.028 | [1] 0.104 | [2] -0.054 | [3] 0 | [4] -0.066 | [5] -0.022 | [6] -0.028 | [7] 0.023 | [8] 0.005 | IRAK-1-4 Inhibitor I 0.031

SNAP91 (UniProt O60641)
inactive: erlotinib -0.053 | [1] -0.092 | [2] 0 | [3] 0.028 | [4] 0.031 | [5] -0.111 | [6] -0.01 | [7] -0.002 | [8] -0.054 | IRAK-1-4 Inhibitor I 0.025

SOGA1 isoform 2 (UniProt O94964)
inactive: erlotinib -0.038 | [1] 0.021 | [2] -0.022 | [3] -0.083 | [4] -0.136 | [5] -0.009 | [6] -0.035 | [7] 0.053 | [8] 0.014 | IRAK-1-4 Inhibitor I 0

SNRPB isoform 3 (UniProt P14678)
inactive: erlotinib 0.016 | [1] 0.064 | [2] 0.028 | [3] -0.004 | [4] -0.003 | [5] -0.002 | [6] 0.035 | [7] 0.017 | [8] -0.009 | IRAK-1-4 Inhibitor I 0.022

SMNDC1 (UniProt O75940)
inactive: erlotinib -0.004 | [1] -0.008 | [2] 0.005 | [3] -0.002 | [4] -0.021 | [5] 0.035 | [6] 0.025 | [7] -0.04 | [8] -0.036 | IRAK-1-4 Inhibitor I 0.003
